Data taken from patent US20100119587A1, “SOLID LIPIDIC […] AS PHARMACEUTICALLY ACCEPTABLE FILLERS OR […] FOR INHALATION” (UNIVERSITE LIBRE DE BRUXELLES, priority 2004, published 2010).
For at least one compound, name, drawing or mass did not settle the structure.

Experiment: Particle size distribution by laser diffraction (Mastersizer 2000, dry sampling)
Assay type: physicochemical
Settings: Table 6, Example 4, n = 3
Procedure: For each SLP composition, the particle size distribution is measured by laser diffractometry, using a dry sampling system with a suitable SOP (Standard Operating Procedure), (Scirocco®, Mastersizer 2000, Malvern, UK).
The size distributions are expressed in terms of the mass median diameter d(0.5), i.e. the size in microns which 50% of the sample is smaller and 50% is larger, and in terms of the volume (mass) mean diameter D[4,3].

In the case of `CCCC1O[C@@H]2C[C@H]3[C@@H]4CCC5=CC(=O)C=C[C@]5(C)[C@H]4[C@@H](O)C[C@]3(C)[C@]2(C(=O)CO)O1` (some centres unmarked) [Budesonide (raw material), budesonide], the “V (4/3)” value is reported as 1.0 ± 0.1 μm and the “d (0.5)” value is reported as 0.8 ± 0.1 μm.
